Experimental data reported in US20050158799A1 (published 2005).
Results are given in words; binding and its absence hold for the method and conditions named. For part of these data: In cells and extracts the contact can be indirect. Some results given as binding are weak or reduced against the parent protein; the word gives no strength.

Chains of the proteins cited; added tags and fusions are not shown. Residues count along the entry.
UniProt O00206, residues 24-839: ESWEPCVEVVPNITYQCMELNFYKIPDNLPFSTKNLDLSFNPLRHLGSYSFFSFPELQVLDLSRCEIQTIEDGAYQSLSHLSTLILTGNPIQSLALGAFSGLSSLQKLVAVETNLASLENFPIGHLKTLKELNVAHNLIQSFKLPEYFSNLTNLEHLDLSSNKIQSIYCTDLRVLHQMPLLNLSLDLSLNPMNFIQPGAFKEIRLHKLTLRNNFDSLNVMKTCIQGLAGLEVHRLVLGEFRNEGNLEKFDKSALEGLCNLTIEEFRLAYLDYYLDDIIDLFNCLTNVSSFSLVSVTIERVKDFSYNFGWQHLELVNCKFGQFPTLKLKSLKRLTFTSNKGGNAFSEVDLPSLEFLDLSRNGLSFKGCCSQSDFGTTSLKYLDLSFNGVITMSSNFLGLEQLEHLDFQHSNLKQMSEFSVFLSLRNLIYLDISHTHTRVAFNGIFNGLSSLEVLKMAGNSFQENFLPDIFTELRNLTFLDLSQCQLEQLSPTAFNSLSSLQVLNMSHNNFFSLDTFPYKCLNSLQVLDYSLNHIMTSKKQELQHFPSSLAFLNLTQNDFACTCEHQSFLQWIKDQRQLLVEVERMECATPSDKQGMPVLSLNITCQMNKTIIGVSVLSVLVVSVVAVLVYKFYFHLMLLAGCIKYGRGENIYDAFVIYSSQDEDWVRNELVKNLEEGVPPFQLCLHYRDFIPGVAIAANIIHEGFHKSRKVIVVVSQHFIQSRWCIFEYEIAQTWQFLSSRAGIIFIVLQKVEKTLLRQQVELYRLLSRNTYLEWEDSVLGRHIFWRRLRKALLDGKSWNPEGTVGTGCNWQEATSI
UniProt Q86XR7: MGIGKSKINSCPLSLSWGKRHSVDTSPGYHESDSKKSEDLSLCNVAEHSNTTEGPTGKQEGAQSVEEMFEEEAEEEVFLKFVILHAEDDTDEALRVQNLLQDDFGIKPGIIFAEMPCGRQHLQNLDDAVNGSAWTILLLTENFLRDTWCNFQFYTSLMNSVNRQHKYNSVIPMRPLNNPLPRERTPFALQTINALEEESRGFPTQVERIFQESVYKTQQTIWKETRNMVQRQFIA
UniProt Q8IUC6: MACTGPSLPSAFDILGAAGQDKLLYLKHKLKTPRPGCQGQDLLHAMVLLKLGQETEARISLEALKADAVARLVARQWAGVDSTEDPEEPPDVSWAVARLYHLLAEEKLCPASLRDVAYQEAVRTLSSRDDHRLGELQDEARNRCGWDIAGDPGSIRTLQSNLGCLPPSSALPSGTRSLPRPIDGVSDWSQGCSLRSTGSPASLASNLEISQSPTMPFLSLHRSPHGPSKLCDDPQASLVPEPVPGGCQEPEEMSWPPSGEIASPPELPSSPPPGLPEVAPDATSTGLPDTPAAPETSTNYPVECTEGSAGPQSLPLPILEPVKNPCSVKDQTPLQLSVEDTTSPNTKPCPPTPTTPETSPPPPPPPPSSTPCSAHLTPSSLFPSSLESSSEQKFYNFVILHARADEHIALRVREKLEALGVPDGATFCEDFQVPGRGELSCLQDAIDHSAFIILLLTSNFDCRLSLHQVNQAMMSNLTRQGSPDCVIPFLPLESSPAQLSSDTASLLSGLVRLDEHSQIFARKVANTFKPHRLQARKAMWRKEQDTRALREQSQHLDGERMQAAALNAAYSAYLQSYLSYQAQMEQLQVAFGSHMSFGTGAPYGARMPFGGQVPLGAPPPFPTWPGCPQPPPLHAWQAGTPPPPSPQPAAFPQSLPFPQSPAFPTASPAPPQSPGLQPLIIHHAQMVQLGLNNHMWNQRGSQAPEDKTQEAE

Assays:
[1] = target: T1, interferon regulatory factor 7 (IRF-7) (UniProt Q92985); experiment: co-immunoprecipitation, similar experiments using IRF-7
T1 sequence (looked up): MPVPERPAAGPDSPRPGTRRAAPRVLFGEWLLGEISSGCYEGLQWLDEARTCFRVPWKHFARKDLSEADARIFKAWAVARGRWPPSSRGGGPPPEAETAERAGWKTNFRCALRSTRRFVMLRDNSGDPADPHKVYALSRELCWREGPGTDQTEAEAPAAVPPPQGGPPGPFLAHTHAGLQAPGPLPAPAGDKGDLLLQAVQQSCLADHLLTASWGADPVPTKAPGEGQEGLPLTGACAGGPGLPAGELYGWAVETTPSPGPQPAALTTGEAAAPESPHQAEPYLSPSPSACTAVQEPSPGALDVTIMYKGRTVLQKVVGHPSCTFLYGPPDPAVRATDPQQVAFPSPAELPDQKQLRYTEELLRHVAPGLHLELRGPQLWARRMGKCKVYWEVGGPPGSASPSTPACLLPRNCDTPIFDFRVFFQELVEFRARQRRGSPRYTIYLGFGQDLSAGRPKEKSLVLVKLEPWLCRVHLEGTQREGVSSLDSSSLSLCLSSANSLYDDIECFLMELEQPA

[2] = target: TLR4-YFP (Toll-Like Receptor 4 fused to yellow fluorescent polypeptide), stably expressed in HELA cells (UniProt O00206); experiment: co-immunoprecipitation from TLR4-YFP HELA cell lysates: anti-GFP IP, blot for Flag
[3] = target: T2, interferon regulatory factor 3 (IRF-3) (UniProt Q14653); experiment: co-immunoprecipitation from transfected HEK293 cells: anti-IRF-3 IP, blot for Flag; confirmed by the reverse anti-Flag IP, blot for IRF-3
T2 sequence (looked up): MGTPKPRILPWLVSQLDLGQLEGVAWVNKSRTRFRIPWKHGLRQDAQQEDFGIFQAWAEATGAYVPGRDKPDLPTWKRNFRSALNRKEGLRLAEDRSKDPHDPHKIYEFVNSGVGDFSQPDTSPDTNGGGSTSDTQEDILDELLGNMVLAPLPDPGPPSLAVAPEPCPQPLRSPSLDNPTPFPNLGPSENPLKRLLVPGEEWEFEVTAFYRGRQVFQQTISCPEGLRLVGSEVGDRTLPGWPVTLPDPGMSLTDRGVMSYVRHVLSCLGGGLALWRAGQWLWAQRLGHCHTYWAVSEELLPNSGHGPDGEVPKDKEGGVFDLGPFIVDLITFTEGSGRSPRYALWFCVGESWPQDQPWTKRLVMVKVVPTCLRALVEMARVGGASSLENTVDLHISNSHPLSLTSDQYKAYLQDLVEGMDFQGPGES

[4] = target: T2, interferon regulatory factor 3 (IRF-3); experiment: co-immunoprecipitation from transfected HEK293 cells
[5] = target: TRAM (as used in GST-pull down experiments) (UniProt Q86XR7); experiment: GST-pull down
[6] = target: Flag-tagged Mal-P125H (dominant negative mutant) (UniProt P58753); experiment: co-immunoprecipitation from 293T cells: anti-GFP IP of TRAM-CFP, blot for Flag
[7] = target: Flag-tagged Mal (MyD88 adaptor-like; TIRAP) (UniProt P58753); experiment: as above
[8] = target: Flag-tagged TRIF (TIR domain-containing adaptor inducing IFN-beta) (UniProt Q8IUC6); experiment: as above
[9] = target: Flag-tagged Mal-P125H (dominant negative mutant) (UniProt P58753); experiment: co-immunoprecipitation from 293T cells: anti-GFP IP of TRIF-CFP, blot for Flag
[10] = target: Flag-tagged Mal (MyD88 adaptor-like; TIRAP) (UniProt P58753); experiment: as above

## Flag-tagged TRAM (TRIF-related adaptor molecule), human (from UniProt Q86XR7 1-235)
[1]
  binding: binds
[2]
  binding: binds
[3]
  binding: binds

## Flag-tagged TRIF (TIR domain-containing adaptor inducing IFN-beta) (from UniProt Q8IUC6 1-712)
[1]
  binding: binds
[4]
  binding: binds

## Mal (as used in GST-pull down experiments) (from UniProt P58753 1-235)
[5]
  binding: binds

## TRAM-CFP (human TRAM fused in-frame with cyan fluorescent polypeptide) (from UniProt Q86XR7 1-235)
[6]
  binding: binds
[7]
  binding: binds
[8]
  binding: binds

## TRIF-CFP (TRIF fused to cyan fluorescent polypeptide) (from UniProt Q8IUC6 1-712)
[9]
  binding: binds
[10]
  binding: binds

B1: Flag-tagged Mal (MyD88 adaptor-like; TIRAP) (other, UniProt P58753-2 1-235, looked up)
chain: MASSTSLPAPGSRPKKPLGKMADWFRQTLLKKPKKRPNSPESTSSDASQPTSQDSPLPPSLSSVTSPSLPPTHASDSGSSRWSKDYDVCVCHSEEDLVAAQDLVSYLEGSTASLRCFLQLRDATPGGAIVSELCQALSSSHCRVLLITPGFLQDPWCKYQMLQALTEAPGAEGCTIPLLSGLSRAAYPPELRFMYYVDGRGPDGGFRQVKEAVMRCKLLQEGEGERDSATVSDLL
notes: pEF-Bos-Flag Mal as described in Fitzgerald et al; also called Flag-Mal; pEF-Bos-Flag Mal; not shown: Flag tag
[2]
  binding: binds
